This note sets out measurements from the supplement of paper PMC6411743.

± gives the standard deviation of the averaged measurements. The list shows a part of the results.

The target in the test is T1, UniProt O00410 and related entries.
T1 sequence (whole entry): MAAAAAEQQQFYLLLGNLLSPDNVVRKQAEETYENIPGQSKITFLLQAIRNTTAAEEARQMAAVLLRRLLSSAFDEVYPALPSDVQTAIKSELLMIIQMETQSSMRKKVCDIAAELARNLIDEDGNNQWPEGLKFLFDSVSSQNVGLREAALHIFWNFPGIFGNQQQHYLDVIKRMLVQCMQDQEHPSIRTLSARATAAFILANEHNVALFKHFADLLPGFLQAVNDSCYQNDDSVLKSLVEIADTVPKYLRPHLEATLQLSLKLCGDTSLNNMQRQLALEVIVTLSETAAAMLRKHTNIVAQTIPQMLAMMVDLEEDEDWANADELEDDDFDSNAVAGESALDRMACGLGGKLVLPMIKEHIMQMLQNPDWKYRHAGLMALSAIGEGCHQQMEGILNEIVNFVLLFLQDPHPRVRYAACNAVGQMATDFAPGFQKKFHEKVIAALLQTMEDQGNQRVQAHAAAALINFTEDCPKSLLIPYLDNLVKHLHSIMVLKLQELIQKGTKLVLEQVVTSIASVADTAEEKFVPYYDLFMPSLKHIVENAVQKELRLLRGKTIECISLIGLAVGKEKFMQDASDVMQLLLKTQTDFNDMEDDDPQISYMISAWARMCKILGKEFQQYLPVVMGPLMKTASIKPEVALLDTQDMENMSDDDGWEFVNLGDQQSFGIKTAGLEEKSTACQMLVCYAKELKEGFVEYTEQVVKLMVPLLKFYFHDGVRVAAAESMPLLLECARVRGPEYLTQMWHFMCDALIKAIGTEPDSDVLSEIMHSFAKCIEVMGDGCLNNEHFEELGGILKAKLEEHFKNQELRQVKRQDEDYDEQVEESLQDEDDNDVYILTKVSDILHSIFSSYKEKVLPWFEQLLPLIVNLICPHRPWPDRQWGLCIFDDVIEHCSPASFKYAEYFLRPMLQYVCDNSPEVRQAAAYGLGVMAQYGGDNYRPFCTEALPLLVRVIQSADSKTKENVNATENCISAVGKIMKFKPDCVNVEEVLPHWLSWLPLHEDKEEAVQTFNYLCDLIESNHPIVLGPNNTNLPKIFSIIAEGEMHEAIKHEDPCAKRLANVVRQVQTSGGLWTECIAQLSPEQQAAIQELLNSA
Kind of test: NP40-soluble protein abundance relative to vehicle (solubility fold change) (ratio); higher = more soluble protein in presence of GTP. How it is done:
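Solubility proteome profiling in Jurkat crude lysate. Lysate was treated with Mg-GTP (0.1-10 mM) for 10 min at room temperature and 3 min at 37 °C, then solubilised with 0.8% NP40 and benzonase, followed by ultracentrifugation. Proteins were quantified by TMT10 LC-MS/MS; the value is the NP40-soluble abundance relative to the NP40-processed vehicle, from 3 independent experiments.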

As for `Nc1nc2c(ncn2[C@@H]2O[C@H](COP(=O)(O)OP(=O)(O)OP(=O)(O)O)[C@@H](O)[C@H]2O)c(=O)[nH]1` [guanosine triphosphate], the NP40-soluble protein abundance turned out to be 0.953 ± 0.026 (concentration: 0.1mM); 0.964 ± 0.012 (concentration: 0.5mM); 0.925 ± 0.022 (concentration: 1mM); 0.9224 ± 0.0069 (concentration: 2mM); 0.908 ± 0.01 (concentration: 4mM); 0.9159 ± 0.0054 (concentration: 6mM). In addition, the NP40-soluble protein abundance is 0.904 ± 0.043 (concentration: 8mM) and 0.912 ± 0.0063 (concentration: 10mM).
